This passage reports binding results from publication PMC9061766.

For the experiment, the target named is T1, Nup93 (X. laevis (endogenous in oocytes)) (UniProt Q7ZX96).
T1 sequence: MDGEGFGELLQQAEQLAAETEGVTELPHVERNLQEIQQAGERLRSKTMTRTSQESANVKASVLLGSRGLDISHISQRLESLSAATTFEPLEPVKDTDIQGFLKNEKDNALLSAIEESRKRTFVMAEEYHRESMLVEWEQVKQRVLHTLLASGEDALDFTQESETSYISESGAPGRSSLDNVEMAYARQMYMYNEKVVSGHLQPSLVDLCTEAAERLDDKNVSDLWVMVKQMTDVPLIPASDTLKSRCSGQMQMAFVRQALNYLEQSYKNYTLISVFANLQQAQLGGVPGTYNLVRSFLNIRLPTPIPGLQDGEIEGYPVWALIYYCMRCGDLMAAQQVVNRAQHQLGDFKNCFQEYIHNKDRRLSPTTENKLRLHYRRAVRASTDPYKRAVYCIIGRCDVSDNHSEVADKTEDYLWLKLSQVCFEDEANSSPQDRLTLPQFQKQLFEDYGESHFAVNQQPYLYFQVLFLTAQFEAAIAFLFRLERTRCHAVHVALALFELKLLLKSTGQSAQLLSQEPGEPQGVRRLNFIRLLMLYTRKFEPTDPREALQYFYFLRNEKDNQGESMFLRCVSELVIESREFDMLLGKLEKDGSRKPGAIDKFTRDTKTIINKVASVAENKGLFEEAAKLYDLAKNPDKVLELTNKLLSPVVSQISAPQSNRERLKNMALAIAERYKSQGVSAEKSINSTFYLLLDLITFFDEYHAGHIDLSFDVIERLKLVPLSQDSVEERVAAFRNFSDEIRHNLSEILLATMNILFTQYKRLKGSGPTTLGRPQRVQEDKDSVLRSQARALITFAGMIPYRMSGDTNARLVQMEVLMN
Put plainly: cryo-EM structure; single-particle cryo-EM of NPCs on the nuclear envelope from X. laevis oocytes; IR subunit reconstructed at 4.2 Å average resolution (local up to 3.8 Å); known and AlphaFold-predicted models docked into the map.

No constants are given. Whether binding was seen depends on the method and setting. Some entries that bind do so weakly or less than the wild type.

B1: Nup93 (protein, UniProt Q7ZX96 1-820)
chain: T1 sequence
For B1, the binding result is listed as “binds”.

B2: NDC1 (protein, UniProt Q6AX31 1-660)
chain: MTMLGERLVLRWRVAASFAWSVILMPVCCALFIVLSRIQILHPIQWLTDSISDLTSSYTIFCLLLICAILGLQCTFLMEYYTVVPSIPCSRLALIGNLLLPHRILHSLAHVAMGVLASWCYAVLSKGKYQLLVVSCTLQSEDEADKPSHCLNESHLFQLLCGAFFGYSYSLQYFVHNMNYLSFPSIQQYKYLQFRRFLPLIIKQSVFQSLYFIRSYAILYFCLGNIPRTWIQTALNLHMDRQQPSLDTLRGFLNLSLFYQIWLSGTFLLATWYMVWILFRIYTTEARIFPVQTSFAEEAEKCLPFILNSNTLPLVKYLAMQDLVLLSQYSPSRRQEVFSLSQPGGHPHNWTSISKECLNLMSSLTSRLIAHQEAAANNGRMRVPSSPKQIRKSSSSSGTSLIEDSAEQTQNLSTIPRIGIPSLLKTASLKSSLDIGSPFATPGVKQMSESLDPNTPCHGSVQSPQVTRRGAKLWTSDSDVQKNGSEVSPVMHRPVCNGAKQGILHTWFQHKLVQIKNVLSKRGLIMYLFSKHPEASSQDVFADAQIHIWALEALSHLVAASFSEDRMGVVQTSLSSVLAILLTLQEAVEKHFKLPHASSKPARNPGSLLDSSCKTLRFSLRAALKTAIYRITTTFGEHLHAVPVSSEHKKKLQQFLDFKE
As to B2, the binding result is given as “binds”.
